PubChem BioAssay AID1224830 – NIAID | 2016
Screen: 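Genes whose knock-down alters the TNF-alpha reporter response to LPS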 (primary screen). Cell system: human THP-1 monocytic leukaemia cells, TNF dual-luciferase reporter clone, PMA-differentiated to macrophage-like cells. Reagent: siRNA pool against human genes, 50 nM. Timing: LPS for 4 h, given about 3 days after siRNA transfection. Challenge: bacterial LPS (TLR4 ligand), 10 ng/ml. Measurement: 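TNF firefly reporter luminescence divided by renilla, normalised to the plate median, then turned into a robust z-score for each replicate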. Scale: TNF reporter robust z-score: higher = stronger TNF reporter response to LPS. Rule for the call: 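a well is active when its z-score exceeds 2.8 or falls below -1.5; control wells carry no call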.
In all, the deposit lists about 18,000 reagents; below is an unselected part. About 2,900 of them (16%) were called active. 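Calls are made per well; low scores hint the gene aids the LPS response, high scores that it dampens it.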 Repeated entries: four replicate wells of each siRNA pool. Reagent sequences are not shown.

| gene symbol | TNF reporter robust z-score | outcome |
| --- | --- | --- |
| CCL8 (C-C motif chemokine ligand 8) | 0.39 | inactive |
| CCL8 (C-C motif chemokine ligand 8) | -0.11 | inactive |
| CCL8 (C-C motif chemokine ligand 8) | 1.07 | inactive |
| CCL8 (C-C motif chemokine ligand 8) | 0.97 | inactive |
| IL18R1 (interleukin 18 receptor 1) | -0.07 | inactive |
| IL18R1 (interleukin 18 receptor 1) | 0.04 | inactive |
| IL18R1 (interleukin 18 receptor 1) | 0.29 | inactive |
| IL18R1 (interleukin 18 receptor 1) | 2.62 | inactive |
| OR5K3 (olfactory receptor family 5 subfamily K member 3) | -0.8 | inactive |
| OR5K3 (olfactory receptor family 5 subfamily K member 3) | 0.05 | inactive |
| OR5K3 (olfactory receptor family 5 subfamily K member 3) | -1.12 | inactive |
| OR5K3 (olfactory receptor family 5 subfamily K member 3) | -1.11 | inactive |
| NOTCH2NLA (notch 2 N-terminal like A) | -1.39 | inactive |
| NOTCH2NLA (notch 2 N-terminal like A) | -0.34 | inactive |
| NOTCH2NLA (notch 2 N-terminal like A) | -0.91 | inactive |
| NOTCH2NLA (notch 2 N-terminal like A) | -0.53 | inactive |
| RAB39A (RAB39A, member RAS oncogene family) | 0.85 | inactive |
| RAB39A (RAB39A, member RAS oncogene family) | 0.16 | inactive |
| RAB39A (RAB39A, member RAS oncogene family) | 0.05 | inactive |
| RAB39A (RAB39A, member RAS oncogene family) | 0.71 | inactive |
| HSPA4 (heat shock protein family A (Hsp70) member 4) | -0.35 | inactive |
| HSPA4 (heat shock protein family A (Hsp70) member 4) | 0.93 | inactive |
| HSPA4 (heat shock protein family A (Hsp70) member 4) | 0.64 | inactive |
| HSPA4 (heat shock protein family A (Hsp70) member 4) | 2.21 | inactive |

Part of the list above, reformatted.
{"gene symbol": "OR5K3 (olfactory receptor family 5 subfamily K member 3)", "TNF reporter robust z-score": -1.11, "outcome": "inactive"}
{"gene symbol": "NOTCH2NLA (notch 2 N-terminal like A)", "TNF reporter robust z-score": -1.39, "outcome": "inactive"}
{"gene symbol": "NOTCH2NLA (notch 2 N-terminal like A)", "TNF reporter robust z-score": -0.34, "outcome": "inactive"}
{"gene symbol": "NOTCH2NLA (notch 2 N-terminal like A)", "TNF reporter robust z-score": -0.91, "outcome": "inactive"}
{"gene symbol": "NOTCH2NLA (notch 2 N-terminal like A)", "TNF reporter robust z-score": -0.53, "outcome": "inactive"}

Further reagents follow:
| gene symbol | TNF reporter robust z-score | outcome |
| --- | --- | --- |
| LYZL2 (lysozyme like 2) | -0.71 | inactive |
| LYZL2 (lysozyme like 2) | -0.78 | inactive |
| LYZL2 (lysozyme like 2) | -0.6 | inactive |
| LYZL2 (lysozyme like 2) | -0.32 | inactive |
| SRGN (serglycin) | 0.65 | inactive |
| SRGN (serglycin) | 1.12 | inactive |
| SRGN (serglycin) | 0.37 | inactive |
| SRGN (serglycin) | 0.03 | inactive |
| NUP98 (nucleoporin 98 and 96 precursor) | -0.57 | inactive |
| NUP98 (nucleoporin 98 and 96 precursor) | -0.49 | inactive |
| NUP98 (nucleoporin 98 and 96 precursor) | 0.56 | inactive |
| NUP98 (nucleoporin 98 and 96 precursor) | -0.05 | inactive |
| ITGB1BP1 (integrin subunit beta 1 binding protein 1) | -1.81 | active |
| ITGB1BP1 (integrin subunit beta 1 binding protein 1) | -1.62 | active |
| ITGB1BP1 (integrin subunit beta 1 binding protein 1) | -2.02 | active |
| ITGB1BP1 (integrin subunit beta 1 binding protein 1) | -1.96 | active |
| SYTL2 (synaptotagmin like 2) | -0.36 | inactive |
| SYTL2 (synaptotagmin like 2) | -0.63 | inactive |
| SYTL2 (synaptotagmin like 2) | -1.04 | inactive |
| SYTL2 (synaptotagmin like 2) | -0.86 | inactive |
| CDK2AP2 (cyclin dependent kinase 2 associated protein 2) | 0.19 | inactive |
| CDK2AP2 (cyclin dependent kinase 2 associated protein 2) | 0.7 | inactive |
| CDK2AP2 (cyclin dependent kinase 2 associated protein 2) | 0.93 | inactive |
| CDK2AP2 (cyclin dependent kinase 2 associated protein 2) | 1.26 | inactive |
